# Part of at least one peptide drawing is inferred or uncertain, most often the ends. Ends that are not written are not given here.
# Columns and labels:
# [1] = test system: neurons in the ischemic penumbra of the cerebral cortex; conditions: continuous infusion to left lateral ventricle after cerebral ischemia, 20 - 60 ng/day for 28 days; cited from earlier work
# [2] = test system: TUNEL-positive neurons in the hippocampal CA1 region; test: TUNEL staining of the hippocampal CA1 region after 3-minutes transient forebrain ischemia; format: in vivo; conditions: 20 ng/day/head intracerebroventricularly, Mongolian gerbil
sequence,measurement,setting,value
LSELIINNATEELLIKGL [18-MP],apoptosis-like neuron death in the ischemic penumbra of the cerebral cortex,[1],significantly suppressed
same,"numbers of TUNEL-positive cells in the hippocampal CAI region, i.e. frequency of apoptosis-like neuron death, reduced by",[2],approximately 30%

# From patent EP1072609A2, “Cytoprotective agents comprising prosaposin-related peptides” (Sakanaka, Masahiro, priority 1999, dated 2001)
